Measured values taken from patent publication US12220440B2, “Drug composition, method for treating infection, disinfecting composition, and drug adjuvant” (priority 2022, dated 2025).
Read-outs that look alike come from different tables or passages of the source. Some entries share one result that the patent states for a list of compounds. Peptide text beside a SMILES is read from it.

Tested on: E. coli CoREC5
Assay type: in vivo, mouse
Conditions: 6.0×10^8 CFU E. coli CoREC5

| SMILES | time by which all mice died (colistin (sulfate salt) 8 mg/kg intraperitoneally every 12 hours) | time by which all mice died (otilonium bromide 10 mg/kg intraperitoneally every 12 hours) |
| --- | --- | --- |
| CCC(C)CCCC(=O)N[C@@H](CCN)C(=O)N[C@H](C(=O)N[C@@H](CCN)C(=O)N[C@H]1CCNC(=O)[C@H]([C@@H](C)O)NC(=O)[C@H](CCN)NC(=O)[C@H](CCN)NC(=O)[C@H](CC(C)C)NC(=O)[C@@H](CC(C)C)NC(=O)[C@H](CCN)NC1=O)[C@@H](C)O (stereo partly drawn) [Colistin] (HELM PEPTIDE1{[CCC(C)CCCC(=O)[*:2]].[Dab].T.[Dab].[Dab].[Dab].[dL].L.[Dab].[Dab].T}$PEPTIDE1,PEPTIDE1,5:R3-11:R2$$$V2.0) | ≤ 36 h | – |
| CCCCCCCCOc1ccccc1C(=O)Nc1ccc(C(=O)OCC[N+](C)(CC)CC)cc1.[Br-] [Ob, Otilonium bromide] | – | ≤ 36 h |
